Reference: PubChem BioAssay AID1159578 (Peter MacCallum Cancer Centre, 2015)
Assay: 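Knock-downs that alter how fast lymphatic endothelial cells migrate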 (primary screen). Cells: human lymphatic endothelial cells. Reagent: siRNA pool against human genes, 40 nM. Duration: 48 h after transfection. Detection: 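Cells stained with dye and imaged after a scratch; covered wound area and nuclei counted, duplicates averaged, migration set against mock wells and turned into a robust z-score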. Scale: migration robust z-score: higher = faster migration into the scratch; nuclei per well: higher = more cells in the well. Hit rule: 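Pools averaging fewer than 3300 nuclei are never called; remaining pools count as changed when migration robust z lies outside -2 to 2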. Meaning of the calls: active = migration changed; inactive = no migration change, or too few cells.
The deposit covers about 18,000 reagents; below is a part drawn at random. In the full data, about 1,030 (5.7%) were called active. 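Inactive calls also include pools with fewer than 3300 nuclei, whose migration was not assessed.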 Raw values are not corrected between plates. A number with no mark means an inactive call. Further read-outs or replicates are left out here.

After knock-down of DBNDD1 [SID255360158] the results were migration robust z-score 2.08 (active); migration class with cell-count check migration z above 2; enough cells; nuclei per well, duplicate mean 6468.
For LIPH [SID255364051], the entry reads migration robust z-score 0.9; migration class with cell-count check migration z between -2 and 2; enough cells; nuclei per well, duplicate mean 6176.
With knock-down of BMX [SID255348564], the screen gave migration robust z-score 0.26; migration class with cell-count check migration z between -2 and 2; enough cells; nuclei per well, duplicate mean 6356.
With knock-down of TASL [SID255360719], the screen gave migration robust z-score 0.65; migration class with cell-count check migration z between -2 and 2; enough cells; nuclei per well, duplicate mean 6174.

2 successive entries already listed, for reference:
DBNDD1 [SID255360158] → migration robust z-score = 2.08 (active); migration class with cell-count check = migration z above 2; enough cells; nuclei per well, duplicate mean = 6468
LIPH [SID255364051] → migration robust z-score = 0.9; migration class with cell-count check = migration z between -2 and 2; enough cells; nuclei per well, duplicate mean = 6176

Additional records follow.
After knock-down of PLEKHO1 [SID255357539], the record shows migration robust z-score -0.08; migration class with cell-count check migration z between -2 and 2; enough cells; nuclei per well, duplicate mean 5464.
For RNF44 [SID255355806] the deposit lists migration robust z-score -1.34; migration class with cell-count check migration z between -2 and 2; enough cells; nuclei per well, duplicate mean 6123.
For OR1B1 [SID255365215], the values are migration robust z-score 0.07; migration class with cell-count check migration z between -2 and 2; enough cells; nuclei per well, duplicate mean 5350.
PAQR9 [SID255365183] showed migration robust z-score 1.81; migration class with cell-count check migration z between -2 and 2; enough cells; nuclei per well, duplicate mean 6474.
NR2F6 [SID255349540] gave migration robust z-score -1.5; migration class with cell-count check migration z between -2 and 2; enough cells; nuclei per well, duplicate mean 5098.
LPCAT1 [SID255360545] showed migration robust z-score 0.26; migration class with cell-count check migration z between -2 and 2; enough cells; nuclei per well, duplicate mean 6295.
Knock-down of PHF5A [SID255361526] came out at: migration robust z-score -1.09; migration class with cell-count check migration z between -2 and 2; enough cells; nuclei per well, duplicate mean 5118.
MORC1 [SID255356942] showed migration robust z-score 1.53; migration class with cell-count check migration z between -2 and 2; enough cells; nuclei per well, duplicate mean 3518.
Against ZNF536 [SID255354520], the values are migration robust z-score 0.64; migration class with cell-count check migration z between -2 and 2; enough cells; nuclei per well, duplicate mean 4314.
PLD6 [SID255364064] showed migration robust z-score 1.47; migration class with cell-count check migration z between -2 and 2; enough cells; nuclei per well, duplicate mean 5954.
